# Assay results as given in the supplement of paper PMC4604168 (melanoma cell lines).
# This is one part of the list. Many values rest on one well or one pass, so single values are uncertain.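 The apoptosis fraction was the count of cleaved-PARP antibody-stained nuclei relative to all DNA-stained nuclei, imaged in 1,536-well plates. Screening doses were set so most cells survived, and baseline and induced cleaved-PARP levels vary greatly across cell lines.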
# Tests used:
# Assay in all cases: cleaved PARP positive nuclei fraction relative to DMSO control; melanoma cells; higher = more apoptosis
# Conditions in all cases: library dose: low library concentration; 72 h
# 501Mel = system: 501Mel
# A101D = system: A101D
# A2058 = system: A2058
# A375 = system: A375
# C32 = system: C32
# CBRC008 = system: CBRC008 (line from a melanoma biopsy)
# CBRC014 = system: CBRC014 (line from a melanoma biopsy)
# CBRC016 = system: CBRC016 (line from a melanoma biopsy)
# CBRC017 = system: CBRC017 (line from a melanoma biopsy)
# CBRC034 = system: CBRC034 (line from a melanoma biopsy)
# COLO792 = system: COLO792
# COLO800 = system: COLO800
# COLO829 = system: COLO829
# G361 = system: G361
# IPC-298 = system: IPC-298
# IST-MEL1 = system: IST-MEL1
# LB2518-MEL = system: LB2518-MEL
# LOXIMVI = system: LOXIMVI
# MEL-HO = system: MEL-HO
SMILES,cleaved PARP positive nuclei fraction (501Mel) [%],cleaved PARP positive nuclei fraction (A101D) [%],cleaved PARP positive nuclei fraction (A2058) [%],cleaved PARP positive nuclei fraction (A375) [%],cleaved PARP positive nuclei fraction (C32) [%],cleaved PARP positive nuclei fraction (CBRC008) [%],cleaved PARP positive nuclei fraction (CBRC014) [%],cleaved PARP positive nuclei fraction (CBRC016) [%],cleaved PARP positive nuclei fraction (CBRC017) [%],cleaved PARP positive nuclei fraction (CBRC034) [%],cleaved PARP positive nuclei fraction (COLO792) [%],cleaved PARP positive nuclei fraction (COLO800) [%],cleaved PARP positive nuclei fraction (COLO829) [%],cleaved PARP positive nuclei fraction (G361) [%],cleaved PARP positive nuclei fraction (IPC-298) [%],cleaved PARP positive nuclei fraction (IST-MEL1) [%],cleaved PARP positive nuclei fraction (LB2518-MEL) [%],cleaved PARP positive nuclei fraction (LOXIMVI) [%],cleaved PARP positive nuclei fraction (MEL-HO) [%]
"CC[C@]1(O)C[C@H]2CN(CCc3c([nH]c4ccccc34)[C@@](C(=O)OC)(c3cc4c(cc3OC)N(C=O)[C@H]3[C@@](O)(C(=O)OC)[C@H](OC(C)=O)[C@]5(CC)C=CCN6CC[C@]43[C@@H]65)C2)C1 [vincristine] + CC(C)C[C@H](NC(=O)[C@H](Cc1ccccc1)NC(=O)c1cnccn1)B(O)O [Bortezomib] (first compound 0.0001 µM, partner dose 0.001 µM)",244,508,360,70.8,95.7,508,183,181,198,158,66.5,89.7,194,1230,78.9,142,415,63.4,208
"CCCCCCCCCCCCCCCCCCOP(=O)([O-])OC1CC[N+](C)(C)CC1 [Perifosine] + O=C(/C=C/c1cccnc1)NCCCCC1CCN(C(=O)c2ccccc2)CC1 [FK866] (first compound 0.4 µM, partner dose 0.01 µM)",63,41.6,102,94.6,87.9,2620,76.8,350,1290,969,448,199,347,3150,137,87,118,73.8,151
"O=C(Nc1cc(C(F)(F)F)cc(C(F)(F)F)c1)c1cc(Cl)ccc1O + CCCCCCCCc1ccc(CCC(N)(CO)CO)cc1 [fingolimod] (first compound 0.016 µM, partner dose 2 µM)",163,42.9,161,122,175,23.8,107,298,113,37.1,41.2,63.5,185,67,88.4,83.2,99.7,93.3,63.6
"O=C(Nc1cc(C(F)(F)F)cc(C(F)(F)F)c1)c1cc(Cl)ccc1O + C[C@@H](Oc1cc(-c2cnn(C3CCNCC3)c2)cnc1N)c1c(Cl)ccc(F)c1Cl [Crizotinib] (first compound 0.016 µM, partner dose 0.2 µM)",61.7,40.6,114,53.4,79.3,192,94.9,78,77.5,35.3,55.7,24.1,106,84.3,39.9,119,49,60.2,56.7
